Results as given in PMC10746543, “Design principles for cyclin K molecular glue degraders” (Nature Chemical Biology, 2023).

Columns and labels:
[1] = system: HEK293T cells; experiment: Drug sensitivity assay (CellTiter-Glo viability) with or without MLN4924 pretreatment; format: cell-based, human
[2] = system: cyclin K–eGFP degradation reporter; experiment: Cyclin K reporter stability analysis (dual-color cyclin K–eGFP reporter); format: cell-based, human; details: source data sheet correlations

DC50 [2]: 55 nM
SMILES: CC[C@H](CO)Nc1nc(NCc2ccc(-c3ccccn3)cc2)c2ncn(C(C)C)c2n1
pEC50 ([1]; read-out: Viability EC50, no MLN4924, Supplementary Fig. 5, 72h): 6.34
pEC50 ([1]; read-out: Viability EC50, with MLN4924, Supplementary Fig. 5, 72h, pre-treatment with 100 nM MLN4924): 5.61

pEC50: −log10 of the molar value. Like-named read-outs stand apart in the source and are kept apart here. The structures given here were assigned with low confidence; some may be wrong.
